PubChem BioAssay AID1159584, Peter MacCallum Cancer Centre | 2016

Purpose: 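Genes whose loss is lethal only together with E-cadherin loss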 (primary screen)
Cell system: human MCF10A breast epithelial cells, parental and CDH1-null
Knock-down reagent: siRNA against human genes
Read-out: 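ATP luminescence (CellTiter-Glo) viability per line relative to mean mock wells over all plates, and the ratio of CDH1-null to parental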
Scale: CDH1-null / parental viability ratio: higher = CDH1-null cells survive relatively better than parental; CDH1-null viability vs mock: higher = more viable CDH1-null cells; parental viability vs mock: higher = more viable parental cells
In all, the deposit lists about 18,000 reagents; this is an unselected part. No sequences are given here. Not stated in the record: the amount of reagent, the time to read-out.

| gene symbol | CDH1-null / parental viability ratio | CDH1-null viability vs mock (fraction of mock) | parental viability vs mock (fraction of mock) |
| --- | --- | --- | --- |
| PSTK (phosphoseryl-tRNA kinase) | 0.73 | 0.72 | 0.98 |
| TBC1D4 (TBC1 domain family member 4) | 1.02 | 0.92 | 0.9 |
| SLC7A3 | 0.74 | 0.73 | 0.99 |
| PPP1R14A (protein phosphatase 1 regulatory inhibitor subunit 14A) | 1 | 0.97 | 0.97 |
| OR10S1 (olfactory receptor family 10 subfamily S member 1) | 0.83 | 0.45 | 0.54 |
| SCN1A (sodium voltage-gated channel alpha subunit 1) | 1.12 | 0.94 | 0.84 |
| GJD4 (gap junction protein delta 4) | 0.79 | 0.68 | 0.86 |
| MAN1C1 (mannosidase alpha class 1C member 1) | 1.15 | 0.94 | 0.82 |
| HAT1 (histone acetyltransferase 1) | 0.98 | 1.09 | 1.11 |
| EIF4G1 (eukaryotic translation initiation factor 4 gamma 1) | 0.97 | 0.62 | 0.64 |
| CEP120 (centrosomal protein 120) | 0.74 | 0.52 | 0.7 |
| ZNF18 (zinc finger protein 18) | 1.28 | 1.19 | 0.93 |
| FAM47A (family with sequence similarity 47 member A) | 1.09 | 0.74 | 0.68 |
| SERPINA1 (serpin family A member 1) | 1.12 | 0.72 | 0.64 |
| OTC (ornithine transcarbamylase) | 1.04 | 1.24 | 1.19 |
| MYCN (MYCN proto-oncogene, bHLH transcription factor) | 1.05 | 0.99 | 0.94 |
| TM4SF4 (transmembrane 4 L six family member 4) | 0.8 | 0.63 | 0.79 |
| PEX11A (peroxisomal biogenesis factor 11 alpha) | 0.89 | 0.42 | 0.47 |
| ZNF212 (zinc finger protein 212) | 0.83 | 0.38 | 0.46 |
| CARD17P (caspase recruitment domain family member 17, pseudogene) | 0.97 | 0.76 | 0.78 |
| FGF23 (fibroblast growth factor 23) | 1.2 | 0.66 | 0.55 |
| ZNF471 (zinc finger protein 471) | 1.12 | 0.83 | 0.74 |
| LARS2 (leucyl-tRNA synthetase 2, mitochondrial) | 0.99 | 0.76 | 0.77 |
| CYP4F2 (cytochrome P450 family 4 subfamily F member 2) | 1 | 0.98 | 0.98 |
| GRAMD4 (GRAM domain containing 4) | 1.18 | 0.98 | 0.83 |
| OR52B4 (olfactory receptor family 52 subfamily B member 4) | 0.9 | 0.78 | 0.87 |
| LMBRD2 (LMBR1 domain containing 2) | 1.16 | 0.78 | 0.67 |
| NXPE1 (neurexophilin and PC-esterase domain family member 1) | 0.85 | 0.56 | 0.66 |
| JAML (junction adhesion molecule like) | 1.04 | 0.88 | 0.85 |
| DRD1 (dopamine receptor D1) | 0.8 | 0.76 | 0.95 |
| YY1 (YY1 transcription factor) | 1 | 1.05 | 1.05 |
| ARHGEF28 (Rho guanine nucleotide exchange factor 28) | 1.15 | 0.94 | 0.82 |
| BUD23 (BUD23 rRNA methyltransferase and ribosome maturation factor) | 0.71 | 0.6 | 0.84 |
| AKAP6 (A-kinase anchoring protein 6) | 0.97 | 0.95 | 0.98 |
| MYCBP (MYC binding protein) | 1.06 | 0.83 | 0.78 |
| CNTLN (centlein) | 0.94 | 0.73 | 0.78 |
| SYNGR2 (synaptogyrin 2) | 1.06 | 0.54 | 0.51 |
| PLN (phospholamban) | 0.95 | 0.86 | 0.91 |
| CTNNBIP1 (catenin beta interacting protein 1) | 1.68 | 0.94 | 0.56 |
| ZFY (zinc finger protein Y-linked) | 1.95 | 0.43 | 0.22 |
| GLRX3 (glutaredoxin 3) | 0.68 | 0.7 | 1.03 |
| SVOPL (SVOP like) | 1.58 | 0.38 | 0.24 |
| UBE2Z (ubiquitin conjugating enzyme E2 Z) | 1.52 | 0.7 | 0.46 |
| KRTAP5-4 (keratin associated protein 5-4) | 0.68 | 0.48 | 0.71 |
| RTBDN (retbindin) | 1.02 | 0.66 | 0.65 |
| EVX2 (even-skipped homeobox 2) | 1.05 | 0.84 | 0.8 |
| VPS33A (VPS33A core subunit of CORVET and HOPS complexes) | 1.1 | 0.9 | 0.82 |
| ALG2 (ALG2 alpha-1,3/1,6-mannosyltransferase) | 0.95 | 0.95 | 1 |
| MED18 (mediator complex subunit 18) | 0.9 | 0.92 | 1.02 |
| E2F3 (E2F transcription factor 3) | 0.93 | 0.83 | 0.89 |
| CHTF8 (chromosome transmission fidelity factor 8) | 1.48 | 0.74 | 0.5 |
| CLDN11 (claudin 11) | 1.06 | 1 | 0.94 |
| ZIM2 (zinc finger imprinted 2) | 1.05 | 0.58 | 0.55 |
| CGA (glycoprotein hormones, alpha polypeptide) | 1.11 | 0.42 | 0.38 |
| AP3S1 (adaptor related protein complex 3 subunit sigma 1) | 1.6 | 0.77 | 0.48 |
| PLAC4 (placenta associated 4) | 1.07 | 0.88 | 0.82 |
| ZNF324B (zinc finger protein 324B) | 1 | 0.42 | 0.42 |
| ZNF92 (zinc finger protein 92) | 1.13 | 1.06 | 0.94 |
| ZKSCAN7 (zinc finger with KRAB and SCAN domains 7) | 1.23 | 0.86 | 0.7 |
| KDELR2 (KDEL endoplasmic reticulum protein retention receptor 2) | 0.8 | 0.86 | 1.07 |
| COX6A1 (cytochrome c oxidase subunit 6A1) | 0.62 | 0.4 | 0.64 |
| KNCN (kinocilin) | 0.93 | 0.56 | 0.6 |
| ZDHHC23 (zDHHC palmitoyltransferase 23) | 0.84 | 0.66 | 0.79 |
| CALB1 (calbindin 1) | 1.05 | 0.84 | 0.8 |
| ELMOD2 (ELMO domain containing 2) | 1.03 | 0.74 | 0.72 |
| MIPEP (mitochondrial intermediate peptidase) | 1.16 | 1.03 | 0.89 |
| GNG10 (G protein subunit gamma 10) | 1.02 | 1.12 | 1.1 |
| DHRS1 (dehydrogenase/reductase 1) | 0.98 | 0.8 | 0.82 |
| DNAI4 (dynein axonemal intermediate chain 4) | 0.7 | 0.44 | 0.63 |
| PLP2 (proteolipid protein 2) | 0.92 | 0.67 | 0.73 |
| HNRNPAB (heterogeneous nuclear ribonucleoprotein A/B) | 0.86 | 0.6 | 0.7 |
| DUSP28 (dual specificity phosphatase 28) | 1.04 | 1.03 | 0.99 |
| DEFB108B (defensin beta 108B) | 1.21 | 0.81 | 0.67 |
| DZIP1 (DAZ interacting zinc finger protein 1) | 1.12 | 1.01 | 0.9 |
| C4orf46 (chromosome 4 open reading frame 46) | 0.95 | 0.54 | 0.57 |
| PTGR3 (prostaglandin reductase 3) | 1.14 | 0.99 | 0.87 |
| COCH (cochlin) | 1.07 | 0.92 | 0.86 |
| EDARADD (EDAR associated via death domain) | 1.05 | 0.77 | 0.73 |
| VWA8 (von Willebrand factor A domain containing 8) | 0.67 | 0.5 | 0.75 |
| DNLZ (DNL-type zinc finger) | 0.97 | 0.76 | 0.78 |
| SMG1 | 0.74 | 0.68 | 0.92 |
| DPCD (deleted in primary ciliary dyskinesia homolog (mouse)) | 1.2 | 0.96 | 0.8 |
| LRRC36 (leucine rich repeat containing 36) | 1.1 | 0.74 | 0.67 |
| HDGF (heparin binding growth factor) | 1.09 | 0.94 | 0.86 |
| FGFRL1 (fibroblast growth factor receptor like 1) | 1.21 | 1.04 | 0.86 |
| GUCA1C (guanylate cyclase activator 1C) | 0.81 | 0.88 | 1.08 |
| STYX (serine/threonine/tyrosine interacting protein) | 1.7 | 0.78 | 0.46 |

In a second layout: results already given
gene symbol	CDH1-null / parental viability ratio	CDH1-null viability vs mock (fraction of mock)	parental viability vs mock (fraction of mock)
DEFB108B (defensin beta 108B)	1.21	0.81	0.67
DZIP1 (DAZ interacting zinc finger protein 1)	1.12	1.01	0.9
C4orf46 (chromosome 4 open reading frame 46)	0.95	0.54	0.57
PTGR3 (prostaglandin reductase 3)	1.14	0.99	0.87
COCH (cochlin)	1.07	0.92	0.86
EDARADD (EDAR associated via death domain)	1.05	0.77	0.73
VWA8 (von Willebrand factor A domain containing 8)	0.67	0.5	0.75
DNLZ (DNL-type zinc finger)	0.97	0.76	0.78
SMG1	0.74	0.68	0.92
DPCD (deleted in primary ciliary dyskinesia homolog (mouse))	1.2	0.96	0.8
LRRC36 (leucine rich repeat containing 36)	1.1	0.74	0.67
